In patent publication US20220048991A1 (BIOND BIOLOGICS, published 2022):
These are yes or no findings as the source states them, for the method shown. Some entries that bind do so weakly or less than the wild type.

Amino acid sequences for entries named in this document (tags omitted). A change or cut given only in a name is not applied to a line headed by its entry.
UniProt Q8NHL6: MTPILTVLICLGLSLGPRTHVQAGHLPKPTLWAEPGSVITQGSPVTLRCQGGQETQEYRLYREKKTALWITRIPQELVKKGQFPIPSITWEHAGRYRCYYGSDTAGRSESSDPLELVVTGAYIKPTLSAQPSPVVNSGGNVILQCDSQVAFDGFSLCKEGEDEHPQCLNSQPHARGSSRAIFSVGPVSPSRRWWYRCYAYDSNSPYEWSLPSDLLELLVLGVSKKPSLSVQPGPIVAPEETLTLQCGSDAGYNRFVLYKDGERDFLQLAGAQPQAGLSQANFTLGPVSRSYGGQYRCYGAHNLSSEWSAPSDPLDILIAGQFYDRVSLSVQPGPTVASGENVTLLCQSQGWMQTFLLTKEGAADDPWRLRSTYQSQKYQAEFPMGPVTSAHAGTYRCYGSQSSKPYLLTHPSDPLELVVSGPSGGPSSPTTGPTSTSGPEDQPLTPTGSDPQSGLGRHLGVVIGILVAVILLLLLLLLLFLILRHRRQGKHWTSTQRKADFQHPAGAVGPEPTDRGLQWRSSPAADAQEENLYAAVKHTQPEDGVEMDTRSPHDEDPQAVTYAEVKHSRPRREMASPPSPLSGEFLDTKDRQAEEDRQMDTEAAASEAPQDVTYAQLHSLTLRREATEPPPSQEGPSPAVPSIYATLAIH

Columns and labels:
[1] = molecular target: human ILT2 fused to mouse CD3 zeta chain, on BW cells (human; mouse) (UniProt P24161); assay: flow cytometry on BW cells transfected with human ILT2; fold above background (FAB) over secondary antibody only
[2] = molecular target: human ILT2 fused to mouse CD3 zeta chain, on BW cells (human; mouse) (UniProt P24161); assay: flow cytometry on BW cells transfected with human ILT2
[3] = molecular target: human ILT2 fused to mouse CD3 zeta chain, on BW cells (human; mouse) (UniProt P24161); assay: flow cytometry (PE) on BW cells transfected with human ILT2
recombinant ILT2 (human) = molecular target: T1, recombinant ILT2 (human) (human, UniProt Q8NHL6 24-461); assay: ELISA on recombinant ILT2
T1 construct: also called recombinant ILT2 peptide; ILT2 protein

[4] = molecular target: human ILT2 fused to mouse CD3 zeta chain, on BW cells (human; mouse) (UniProt P24161); assay: flow cytometry on BW cells transfected with ILT2
[5] = molecular target: T2, biotinylated recombinant human ILT2-Fc (human, UniProt Q8NHL6 24-458, limits assumed, conjugated with biotin (sites not given)); assay: flow cytometry blocking assay: ILT2-biotin binding to HLA-G transfected A375 cells, Streptavidin-PE; antibody concentration not given
T2 construct: Bought (Sino Biologics); the order of the parts is therefore uncertain; also called ILT2-biotin; biotinylated ILT2; not shown: Fc portion of human IgG1

[6] = molecular target: human ILT2 fused to mouse CD3 zeta chain, on BW cells (human; mouse) (UniProt P24161); assay: flow cytometry on BW cells transfected with human ILT2; fold above background (FAB) [left panel]
[7] = molecular target: human ILT2 fused to mouse CD3 zeta chain, on BW cells (human; mouse) (UniProt P24161); assay: flow cytometry on BW cells transfected with human ILT2; fold above background (FAB) [right panel]

Row | Binder | binding [1] | binding [2] | further results
1 | 15G8-34 (humanized 15G8, VH3/Vk4) (antibody, IgG4, V domains shown, Humanized IgG4 (S228P, L235E), kappa) VH: DVQLQGSGPGLVKPSETLSLTCSVTGYSITSGYYWNWIRQPPGKGLEWMGYISYDGSNNYNPSLKNRITISRDTSKNQFSLKLSSVTAADTATYYCAHGYSYYYAMDAWGQGTTVTVSS VL: DIQMTQSPSSLSASVGDRVTITCRTSQDISNYLNWYQQKPGKAPKLLISYTSRLHSGVPSRFSGSGSGTDYTLTISSLQPEDFATYFCQQGNTLPTFGQGTKLEIK | binds | binds | –
2 | 15G8-44 (humanized 15G8, VH4/Vk4) (antibody, IgG4, V domains shown, Humanized IgG4 (S228P, L235E), kappa) VH: QVQLQGSGPGLVKPSETLSLTCSVTGYSITSGYYWNWIRQPPGKGLEWMGYISYDGSNNYNPSLKNRVTISRDTSKNQFSLKLSSVTAADTATYYCAHGYSYYYAMDAWGQGTTVTVSS VL: DIQMTQSPSSLSASVGDRVTITCRTSQDISNYLNWYQQKPGKAPKLLISYTSRLHSGVPSRFSGSGSGTDYTLTISSLQPEDFATYFCQQGNTLPTFGQGTKLEIK | binds | binds | –
3 | 15G8 (hybridoma-derived, murine) (antibody, V domains shown, also called 15G8 antibody) VH: DVQLQGSGPGLVKPSQSLSLTCSVTGYSITSGYYWNWIRQFPGNKLEWMGYISYDGSNNYNPSLKNRISITRDTSKNQFFLKLNSVTSEDTATYYCAHGYSYYYAMDCWGQGTSVTVSS VL: DIQMTQTTSSLSASLGDRVTISCRTSQDISNYLNWYQQKPDGTVKLLISYTSRLHSGVPSRFSGSGSGTDYSLTISNLEQEDIATYFCQQGNTLPTFGSGTKLEIK | – | – | binding [3]: binds; binding (recombinant ILT2 (human)): binds; binding [4]: binds; binding [5]: binds
4 | 19E3 (hybridoma-derived, murine) (antibody, V domains shown) VH: QVQLQQSGAELARPGASVKLSCKASGYTFTSYGISWVKQRTGQGLEWVGEIYPGSGNSYYNEKFKGKATLTADKSSSTAYMELRSLTSEDSAVYFCARSNDGYPDYWGQGTTLTVSS VL: DIQMTQSSSYLSVSLGGRVTITCKASDHINNWLAWYQQKPGNAPRLLISGATSLETGVPSRFSGSGSGKDYTLSITSLQTEDVATYYCQQYWSTPWTFGGGTKLEIK | – | – | binding [3]: binds; binding [4]: binds
5 | 17F2 (hybridoma-derived, murine) (antibody, V domains shown) VH: QVQLQQSDAELVKPGASVKISCKVSGYTFTDHTIHWMKQRPEQGLEWIGYIYPRDGSTKYNEKFKGKATLTADKSSSTAYMQLNSLTSEDSAVYFCARTWDYFDYWGQGTTLTVSS VL: DIVLTQSPASLAVSLGQRATISCRASESVDSYGNSFMHWYQQKPGQPPKLLIYRASNLESGIPARFSGSGSRTDFTLTINPVEADDVATYYCQQSNEDPYTFGGGTKLEIK | – | – | binding [3]: binds; binding [4]: binds
6 | chimeric 15G8 antibody (antibody, V domains shown, Chimeric form of murine 15G8) VH: DVQLQGSGPGLVKPSQSLSLTCSVTGYSITSGYYWNWIRQFPGNKLEWMGYISYDGSNNYNPSLKNRISITRDTSKNQFFLKLNSVTSEDTATYYCAHGYSYYYAMDCWGQGTSVTVSS VL: DIQMTQTTSSLSASLGDRVTISCRTSQDISNYLNWYQQKPDGTVKLLISYTSRLHSGVPSRFSGSGSGTDYSLTISNLEQEDIATYFCQQGNTLPTFGSGTKLEIK | – | binds | binding [7]: binds
7 | 15G8-23 (humanized 15G8, VH2/Vk3) (antibody, human IgG4 S228P, kappa, V domains shown, Humanized IgG4 (S228P, L235E), kappa) VH: DVQLQGSGPGLVKPSETLSLTCSVTGYSITSGYYWNWIRQFPGKKLEWMGYISYDGSNNYNPSLKNRITISRDTSKNQFSLKLSSVTAADTATYYCAHGYSYYYAMDAWGQGTTVTVSS VL: DIQMTQSPSSLSASVGDRVTITCRTSQDISNYLNWYQQKPGKAVKLLISYTSRLHSGVPSRFSGSGSGTDYTLTISSLQPEDFATYYCQQGNTLPTFGQGTKLEIKR | binds | binds | –
8 | 15G8-13 (humanized 15G8, VH1/Vk3, alanine variant A108) (antibody, human IgG4 S228P, kappa, V domains shown, Humanized IgG4 (S228P, L235E), kappa; also called 15G8 humanized antibody; BND-22) VH: DVQLQGSGPGLVKPSETLSLTCSVTGYSITSGYYWNWIRQFPGKKLEWMGYISYDGSNNYNPSLKNRITISRDTSKNQFSLKLNSVTAADTATYYCAHGYSYYYAMDAWGQGTSVTVSS VL: DIQMTQSPSSLSASVGDRVTITCRTSQDISNYLNWYQQKPGKAVKLLISYTSRLHSGVPSRFSGSGSGTDYTLTISSLQPEDFATYYCQQGNTLPTFGQGTKLEIKR | binds | binds | binding [7]: binds
9 | 15G8-32 (humanized 15G8, VH3/Vk2) (antibody, human IgG4 S228P, kappa, V domains shown, Humanized IgG4 (S228P, L235E), kappa) VH: DVQLQGSGPGLVKPSETLSLTCSVTGYSITSGYYWNWIRQPPGKGLEWMGYISYDGSNNYNPSLKNRITISRDTSKNQFSLKLSSVTAADTATYYCAHGYSYYYAMDAWGQGTTVTVSS VL: DIQMTQSPSSLSASVGDRVTITCRTSQDISNYLNWYQQKPGKAVKLLISYTSRLHSGVPSRFSGSGSGTDYTLTISSLQPEDFATYFCQQGNTLPTFGQGTKLEIKR | binds | binds | –

Further lines, with some results ahead:

Row | binding [1] | binding [2] | Binder | further results
10 | binds | binds | 15G8-54 (humanized 15G8, VH5/Vk4) (antibody, IgG4, V domains shown, Humanized IgG4 (S228P, L235E), kappa) VH: QVQLQGSGPGLVKPSETLSLTCTVTGYSITSGYYWNWIRQPPGKGLEWIGYISYDGSNNYNPSLKNRVTISRDTSKNQFSLKLSSVTAADTATYYCAHGYSYYYAMDAWGQGTTVTVSS VL: DIQMTQSPSSLSASVGDRVTITCRTSQDISNYLNWYQQKPGKAPKLLISYTSRLHSGVPSRFSGSGSGTDYTLTISSLQPEDFATYFCQQGNTLPTFGQGTKLEIK | –
11 | – | binds | chimeric 19E3 (antibody, V domains shown, Chimera of murine 19E3; also called chimeric murine 19E3) VH: QVQLQQSGAELARPGASVKLSCKASGYTFTSYGISWVKQRTGQGLEWVGEIYPGSGNSYYNEKFKGKATLTADKSSSTAYMELRSLTSEDSAVYFCARSNDGYPDYWGQGTTLTVSS VL: DIQMTQSSSYLSVSLGGRVTITCKASDHINNWLAWYQQKPGNAPRLLISGATSLETGVPSRFSGSGSGKDYTLSITSLQTEDVATYYCQQYWSTPWTFGGGTKLEIK | binding [6]: binds
12 | binds | binds | 15G8-53 (humanized 15G8, VH5/Vk3) (antibody, human IgG4 S228P, kappa, V domains shown, Humanized IgG4 (S228P, L235E), kappa) VH: QVQLQGSGPGLVKPSETLSLTCTVTGYSITSGYYWNWIRQPPGKGLEWIGYISYDGSNNYNPSLKNRVTISRDTSKNQFSLKLSSVTAADTATYYCAHGYSYYYAMDAWGQGTTVTVSS VL: DIQMTQSPSSLSASVGDRVTITCRTSQDISNYLNWYQQKPGKAVKLLISYTSRLHSGVPSRFSGSGSGTDYTLTISSLQPEDFATYYCQQGNTLPTFGQGTKLEIKR | –
